Experimental data published in patent US10653173B2, “Method for masking unpleasant taste” (Analyticon Discovery GmbH, priority 2015, dated 2020).

Test: Sensory panel: natural taste of dehydroabietic acid and extracts, sip and spit
Format: in vivo, human
Details: pH neutral

CC(C)c1ccc2c(c1)CC[C@H]1[C@](C)(C(=O)O)CCC[C@]21C [dehydroabietic acid]
Evaluation (descriptive taste) (10 μM in 0.5% ethanol): neutral
Evaluation (descriptive taste) (50 μM in 0.5% ethanol): astringent, dry, slightly metallic taste
Evaluation (descriptive taste) (3 mg/l, ethanol below 0.5%): neutral
Evaluation (descriptive taste) (7.5 mg/l, ethanol below 0.5%): neutral
